Laboratory results published in US20120088841A1, “COMPOSITION AND A METHOD OF TREATING CNS DISORDERS AND HYPERPIGMENTATION” (priority 2010, published 2012).
At least one compound was matched to its structure with a doubt left.

Experiments:
NO = assay: Quantification of NO in supernatant from brain tissue homogenate of ICV STZ rats; type: in vivo; conditions: graded doses 0.5, 1, 2 and 4 mg/kg p.o., day 21, brain homogenate, dose dependent
[1] = ORAC value (comparative data); conditions: invitro; higher is better
Excerpt: The results are as tabulated below in table 2.

IL-6 = assay: Quantification of IL-6 in supernatant from brain tissue homogenate of ICV STZ rats; type: in vivo; conditions: graded doses 0.5, 1, 2 and 4 mg/kg p.o., day 21, brain homogenate, dose dependent
IL-1β = assay: Quantification of IL-1β in supernatant from brain tissue homogenate of ICV STZ rats; type: in vivo; conditions: graded doses 0.5, 1, 2 and 4 mg/kg p.o., day 21, brain homogenate, dose dependent

## C=CCc1ccc(O)c(O)c1 [HC, Hydroxychavicol]
NO
  NO level: significantly decreased
[1]
  ORAC value (μmol trolox equivalents/g): 29728 μmol trolox equivalents/g
IL-6
  IL-6 level: significantly decreased
IL-1β
  IL-1β level: significantly decreased
